PubChem BioAssay AID1671195, Yale University | 2021

Assay: 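Knockdowns that increase or decrease uptake of fluorescent LDL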 (primary screen)
Cell system: human Huh7 hepatoma cells
Reagents: siRNA pool against human genes, 18 nM
Timing: about 2 to 2.5 days of knockdown, then 8 h LDL uptake
Challenge: DiI-labelled LDL at 30 µg/ml for 8 h, in lipoprotein-deficient serum medium
Detection: 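Fluorescent LDL signal imaged in cells, scaled to the plate median, robust z-score for each replicate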
Reading the numbers: robust z-score: higher = more LDL uptake after knockdown
Active means: 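a gene counts as active if at least two replicate z-scores exceed ±2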
Here is an unselected part of about 22,000 reagents. Of all reagents, about 1,510 (6.9%) got an active call. 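Active includes knockdowns raising or lowering LDL uptake; positive z-scores mean more uptake, negative mean less.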 Unmarked entries are inactive.

no.	gene	PubChem SID	robust z-score, replicate 1	robust z-score, replicate 2	robust z-score, replicate 3
1	SPECC1L (GeneID 23384)	SID442889331	0.241	1.93	-0.439
2	LOC389473 (GeneID 389473)	SID442904736	-1.85	-2.08	-1.63
3	SCN4A (GeneID 6329)	SID442891711	0.0433	0.415	0.298
4	FARP2 (GeneID 9855)	SID442884832	1.77	2.31	1.47
5	BPIFB2 (GeneID 80341)	SID442893585	-0.0232	0.155	-0.0354
6	RPL35 (GeneID 11224)	SID442904618	-1.52	-2.43	-1.31
7	SPEN (GeneID 23013)	SID442884338	-2.08 (active)	-2.01	-1.81
8	FEZ2 (GeneID 9637)	SID442886989	0.436	0.291	2.31
9	FBXO24 (GeneID 26261)	SID442891077	0.408	-0.0751	0.67
10	FNDC8 (GeneID 54752)	SID442900911	-0.52	-1.37	-0.585
11	HLA-DRB4 (GeneID 3126)	SID442901082	0.123	-1.67	-1
12	FABP5P1 (GeneID 387934)	SID442902577	-1.01	-1.05	-1.26
13	BEST4 (GeneID 266675)	SID442890570	0.284	0.414	0.496
14	MZT1 (GeneID 440145)	SID442904771	-1.69	-1.8	-2.17
15	IL15RA (GeneID 3601)	SID442886808	1.54	1.11	0.53
16	HPSE2 (GeneID 60495)	SID442892520	0.152	0.152	0.167
17	CCDC34 (GeneID 91057)	SID442894230	-0.0654	-0.122	0.0648
18	LRRC42 (GeneID 115353)	SID442896464	-0.519	-0.0404	-0.268
19	KICS2 (GeneID 144577)	SID442895445	-0.156	0.0713	-0.423
20	ALDH1A1 (GeneID 216)	SID442901682	-1.04	-0.62	-1.15
21	AIM2 (GeneID 9447)	SID442904125	-1.09	-1.14	-2.27
22	DNM1P33 (GeneID 554175)	SID442884420	-1.98 (active)	-2.1	-2.2
23	EVA1B (GeneID 55194)	SID442887161	1.16	0.706	1.05
24	CNTNAP3B (GeneID 728577)	SID442883768	2.51 (active)	1.89	2.62
25	CNTNAP3B (GeneID 728577)	SID442891128	0.344	0.224	0.414
26	CNTNAP3B (GeneID 728577)	SID442901636	-1.01	-0.93	-0.852
27	GPRIN2 (GeneID 9721)	SID442900120	-0.0597	-0.764	-1.32
28	LOC442372 (retired record) (GeneID 442372)	SID442902700	-1.33	-1.01	-1.05
29	SERPINA12 (GeneID 145264)	SID442896728	-0.0935	-0.776	-0.0484
30	DYNLRB1 (GeneID 83658)	SID442897734	-0.831	-0.0966	-0.329
31	DACT2 (GeneID 168002)	SID442894031	0.621	-0.383	-0.294
32	ZNF486 (GeneID 90649)	SID442886753	1.32	0.537	1.36
33	ZBTB24 (GeneID 9841)	SID442889891	0.602	0.461	0.414
34	LOC439967 (retired record) (GeneID 439967)	SID442895169	-0.275	0.0119	-0.163
35	LOC440058 (retired record) (GeneID 440058)	SID442896134	-0.228	0.131	-0.627

Records above marked active:
gene	PubChem SID	robust z-score, replicate 1	robust z-score, replicate 2	robust z-score, replicate 3
SPEN (GeneID 23013)	SID442884338	-2.08 (active)	-2.01	-1.81
DNM1P33 (GeneID 554175)	SID442884420	-1.98 (active)	-2.1	-2.2
CNTNAP3B (GeneID 728577)	SID442883768	2.51 (active)	1.89	2.62

Further results:
no.	gene	PubChem SID	robust z-score, replicate 1	robust z-score, replicate 2	robust z-score, replicate 3
36	DYNLT4 (GeneID 343521)	SID442895588	-0.0533	-0.147	-0.353
37	LYSMD3 (GeneID 116068)	SID442903281	-1.51	-0.788	-1.49
38	PEX5L (GeneID 51555)	SID442902370	-1.96	-1.04	-0.188
39	UBE2L3 (GeneID 7332)	SID442892908	0.492	0.331	-0.489
40	MBD5 (GeneID 55777)	SID442886686	0.281	1.28	1.7
41	SPTSSA (GeneID 171546)	SID442884105	2.13 (active)	2.02	1.74
42	ZC3H3 (GeneID 23144)	SID442897794	0.463	-1.3	-0.442
43	CSPG5 (GeneID 10675)	SID442892084	0.364	-0.769	1.04
44	MFHAS1 (GeneID 9258)	SID442890332	0.275	0.54	0.48
45	CFAP91 (GeneID 89876)	SID442885526	0.897	1.68	1.86
46	SBNO1 (GeneID 55206)	SID442902808	-0.685	-2.02	-0.749
47	LOC441510 (retired record) (GeneID 441510)	SID442896967	0.105	-0.62	-0.481
48	RTL4 (GeneID 340595)	SID442902143	-1.21	-0.99	-0.861
49	FENDRR (GeneID 400550)	SID442889818	0.393	0.502	0.62
50	TBC1D2B (GeneID 23102)	SID442889150	0.331	0.732	0.752
51	ROR1 (GeneID 4919)	SID442904167	-0.626	-2.45	-1.47
52	TRIM9 (GeneID 114088)	SID442900448	-0.0604	-1.3	-0.915
53	LRRTM4 (GeneID 80059)	SID442886041	1.18	1.28	1.4
54	ITGA4 (GeneID 3676)	SID442894606	0.374	-0.803	0.185
55	UBR4 (GeneID 23352)	SID442897187	-0.0926	-0.944	-0.0315
56	UBR4 (GeneID 23352)	SID442902885	-1.86	0.707	-2.35
57	RCC1 (GeneID 1104)	SID442887820	0.613	0.969	0.925
58	TMEM101 (GeneID 84336)	SID442899608	-0.837	-0.671	-0.421
59	CNTN4 (GeneID 152330)	SID442903918	-1.01	-1.73	-1.55
60	MBNL1-AS1 (GeneID 401093)	SID442886330	1.59	1.14	0.84
61	DDB1 (GeneID 1642)	SID442895206	0.625	-0.841	-0.221
62	NID2 (GeneID 22795)	SID442896121	0.136	-0.11	-0.746
63	NECAP2 (GeneID 55707)	SID442891917	-0.0909	0.87	-0.0893
64	FBL (GeneID 2091)	SID442893607	-0.0972	0.288	-0.1
65	C8orf16 (GeneID 100506010)	SID442899696	-0.796	-0.745	-0.428
66	ATP6V1C2 (GeneID 245973)	SID442891396	0.387	0.18	0.308
67	PHACTR4 (GeneID 65979)	SID442892742	-0.0161	0.116	0.289
68	ATP11AUN (GeneID 400165)	SID442889913	0.371	0.903	0.196
